Values quoted from earlier work as cited in patent US9568466B2, “In vitro assay for predicting renal proximal tubular cell toxicity” (priority 2012, dated 2017).
Some of these results come from one statement about several compounds together.

Test system: renal proximal tubule
Settings: clinically relevant concentrations; cited from earlier work

CN(C)[C@@H]1C(O)=C(C(N)=O)C(=O)[C@@]2(O)C(O)=C3C(=O)c4c(O)cccc4[C@@](C)(O)[C@H]3C[C@@H]12 [tetracycline, Tetracycline]
nephrotoxicity in humans / direct damage of the renal proximal tubule: nephrotoxic in humans and damage directly the renal proximal tubule
